The other results are listed elsewhere or left out.
Compound: CC1Cc2ccccc2N1C(=O)C1CCCN(C1)C(=O)CCl (mixture of isomers) [TRIM25 ligand 11 (diastereomer mixture)]
Test: probe-labelled cysteine peptide fold change vs DMSO (competition) (log2 fold change); higher = less target engagement (more negative = stronger competition)
Conditions: THP-1, incubation time: 4 h
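Note: competitive chemoproteomic profiling in live THP-1 cells with an iodoacetamide desthiobiotin (IA-DTB) probe, comparing probe-labelled peptide intensities in compound-treated cells against DMSO-treated controls.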

Amino acid sequences for entries named in this document (tags omitted). A change or cut given only in a name is not applied to a line headed by its entry.
UniProt Q00403, whole entry, looked up: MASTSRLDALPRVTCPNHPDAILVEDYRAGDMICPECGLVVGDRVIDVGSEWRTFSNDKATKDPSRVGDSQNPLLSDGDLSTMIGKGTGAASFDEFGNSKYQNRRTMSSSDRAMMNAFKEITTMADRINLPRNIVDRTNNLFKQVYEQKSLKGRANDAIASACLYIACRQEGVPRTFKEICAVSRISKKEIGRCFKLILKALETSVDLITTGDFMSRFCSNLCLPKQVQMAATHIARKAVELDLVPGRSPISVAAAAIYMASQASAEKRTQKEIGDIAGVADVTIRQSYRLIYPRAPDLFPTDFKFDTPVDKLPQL
UniProt P07203, whole entry, looked up: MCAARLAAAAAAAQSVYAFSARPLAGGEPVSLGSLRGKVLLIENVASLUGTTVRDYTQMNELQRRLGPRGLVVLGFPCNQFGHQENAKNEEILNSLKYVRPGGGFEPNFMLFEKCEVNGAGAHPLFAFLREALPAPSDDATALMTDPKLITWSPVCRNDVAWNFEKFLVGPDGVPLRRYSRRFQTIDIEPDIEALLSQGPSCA
UniProt Q8TAA5: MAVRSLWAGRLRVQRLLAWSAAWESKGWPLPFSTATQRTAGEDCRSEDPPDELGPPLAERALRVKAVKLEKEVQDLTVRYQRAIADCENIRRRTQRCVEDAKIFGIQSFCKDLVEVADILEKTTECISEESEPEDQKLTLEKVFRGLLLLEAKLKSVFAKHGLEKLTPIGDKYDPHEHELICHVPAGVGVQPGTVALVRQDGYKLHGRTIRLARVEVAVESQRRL
UniProt Q12789: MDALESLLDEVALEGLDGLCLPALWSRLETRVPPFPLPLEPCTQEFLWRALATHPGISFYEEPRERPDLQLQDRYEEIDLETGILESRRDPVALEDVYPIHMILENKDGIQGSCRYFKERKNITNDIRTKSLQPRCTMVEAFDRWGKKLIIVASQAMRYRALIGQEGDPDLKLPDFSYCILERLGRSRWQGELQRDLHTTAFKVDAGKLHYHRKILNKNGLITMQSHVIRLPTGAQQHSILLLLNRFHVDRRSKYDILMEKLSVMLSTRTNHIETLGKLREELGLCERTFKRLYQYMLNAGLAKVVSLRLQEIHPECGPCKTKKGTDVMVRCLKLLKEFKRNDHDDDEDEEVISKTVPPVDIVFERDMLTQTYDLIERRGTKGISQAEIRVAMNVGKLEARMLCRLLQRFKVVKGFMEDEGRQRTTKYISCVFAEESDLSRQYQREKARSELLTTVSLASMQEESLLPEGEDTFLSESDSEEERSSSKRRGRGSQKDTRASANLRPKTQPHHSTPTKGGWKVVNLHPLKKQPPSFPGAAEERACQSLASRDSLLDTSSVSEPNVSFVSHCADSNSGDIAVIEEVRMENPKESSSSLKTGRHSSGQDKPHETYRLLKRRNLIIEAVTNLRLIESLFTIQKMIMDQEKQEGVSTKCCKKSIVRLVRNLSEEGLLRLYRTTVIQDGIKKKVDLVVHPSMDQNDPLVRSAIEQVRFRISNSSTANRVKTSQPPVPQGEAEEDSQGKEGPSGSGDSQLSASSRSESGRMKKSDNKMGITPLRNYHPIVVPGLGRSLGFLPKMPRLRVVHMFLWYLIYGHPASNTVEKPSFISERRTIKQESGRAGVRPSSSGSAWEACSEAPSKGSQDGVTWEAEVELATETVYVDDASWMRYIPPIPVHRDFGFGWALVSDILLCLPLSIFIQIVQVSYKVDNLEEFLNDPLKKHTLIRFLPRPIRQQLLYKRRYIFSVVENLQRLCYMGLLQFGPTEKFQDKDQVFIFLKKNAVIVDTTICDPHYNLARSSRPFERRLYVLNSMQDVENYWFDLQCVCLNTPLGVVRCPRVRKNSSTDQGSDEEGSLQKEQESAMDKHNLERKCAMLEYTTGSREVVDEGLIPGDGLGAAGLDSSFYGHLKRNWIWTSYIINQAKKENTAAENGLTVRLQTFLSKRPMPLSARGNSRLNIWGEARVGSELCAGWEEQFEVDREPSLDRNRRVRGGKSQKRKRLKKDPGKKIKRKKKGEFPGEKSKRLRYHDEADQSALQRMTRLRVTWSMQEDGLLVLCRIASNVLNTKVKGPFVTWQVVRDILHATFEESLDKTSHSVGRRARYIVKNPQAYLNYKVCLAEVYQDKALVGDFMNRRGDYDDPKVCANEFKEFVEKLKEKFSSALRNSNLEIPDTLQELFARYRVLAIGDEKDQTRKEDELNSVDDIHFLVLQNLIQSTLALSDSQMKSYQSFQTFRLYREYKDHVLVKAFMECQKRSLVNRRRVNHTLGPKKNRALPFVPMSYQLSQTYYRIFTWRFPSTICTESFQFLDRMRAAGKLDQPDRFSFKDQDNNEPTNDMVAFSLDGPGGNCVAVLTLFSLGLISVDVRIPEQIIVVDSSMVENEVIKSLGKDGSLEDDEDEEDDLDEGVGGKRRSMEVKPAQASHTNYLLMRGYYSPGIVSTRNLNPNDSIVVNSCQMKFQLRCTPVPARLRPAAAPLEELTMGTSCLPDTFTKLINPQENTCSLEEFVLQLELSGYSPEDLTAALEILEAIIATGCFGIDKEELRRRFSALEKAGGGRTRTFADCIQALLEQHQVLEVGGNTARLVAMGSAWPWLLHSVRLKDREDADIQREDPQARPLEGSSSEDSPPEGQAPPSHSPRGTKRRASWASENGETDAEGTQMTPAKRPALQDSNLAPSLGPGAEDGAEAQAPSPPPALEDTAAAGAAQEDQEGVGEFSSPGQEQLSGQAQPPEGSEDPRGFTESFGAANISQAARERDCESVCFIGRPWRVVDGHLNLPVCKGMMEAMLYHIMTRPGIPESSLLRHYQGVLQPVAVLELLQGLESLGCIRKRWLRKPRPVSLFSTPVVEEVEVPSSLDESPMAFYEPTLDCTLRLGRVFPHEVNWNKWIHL
UniProt P28799: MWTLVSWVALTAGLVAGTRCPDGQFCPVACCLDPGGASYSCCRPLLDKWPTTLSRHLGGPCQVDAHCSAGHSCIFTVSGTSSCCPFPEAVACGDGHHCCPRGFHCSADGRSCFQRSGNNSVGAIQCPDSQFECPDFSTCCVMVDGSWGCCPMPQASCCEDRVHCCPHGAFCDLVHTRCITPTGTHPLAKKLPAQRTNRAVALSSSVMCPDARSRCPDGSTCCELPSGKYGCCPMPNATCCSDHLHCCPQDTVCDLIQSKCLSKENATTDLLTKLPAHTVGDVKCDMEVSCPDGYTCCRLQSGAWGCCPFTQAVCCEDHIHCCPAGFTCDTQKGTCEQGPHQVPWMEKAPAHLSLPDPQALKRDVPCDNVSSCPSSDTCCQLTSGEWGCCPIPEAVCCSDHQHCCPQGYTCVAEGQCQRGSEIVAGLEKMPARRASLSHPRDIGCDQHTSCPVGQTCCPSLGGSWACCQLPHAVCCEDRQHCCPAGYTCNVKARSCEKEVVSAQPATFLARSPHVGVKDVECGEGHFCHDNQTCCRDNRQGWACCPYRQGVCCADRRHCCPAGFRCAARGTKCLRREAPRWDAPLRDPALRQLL
UniProt Q13098: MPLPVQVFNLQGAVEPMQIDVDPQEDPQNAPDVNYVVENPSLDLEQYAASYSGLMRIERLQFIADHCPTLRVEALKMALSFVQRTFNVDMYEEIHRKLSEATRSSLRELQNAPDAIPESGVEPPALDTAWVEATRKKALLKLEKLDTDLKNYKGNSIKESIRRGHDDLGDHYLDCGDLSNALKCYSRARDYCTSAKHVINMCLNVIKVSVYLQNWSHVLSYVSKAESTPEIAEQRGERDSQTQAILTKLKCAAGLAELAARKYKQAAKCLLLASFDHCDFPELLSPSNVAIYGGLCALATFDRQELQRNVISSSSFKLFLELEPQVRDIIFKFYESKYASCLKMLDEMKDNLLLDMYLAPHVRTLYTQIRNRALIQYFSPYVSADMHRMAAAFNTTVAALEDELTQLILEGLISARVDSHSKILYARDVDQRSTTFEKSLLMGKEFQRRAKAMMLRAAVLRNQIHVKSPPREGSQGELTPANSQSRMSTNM
UniProt P21266: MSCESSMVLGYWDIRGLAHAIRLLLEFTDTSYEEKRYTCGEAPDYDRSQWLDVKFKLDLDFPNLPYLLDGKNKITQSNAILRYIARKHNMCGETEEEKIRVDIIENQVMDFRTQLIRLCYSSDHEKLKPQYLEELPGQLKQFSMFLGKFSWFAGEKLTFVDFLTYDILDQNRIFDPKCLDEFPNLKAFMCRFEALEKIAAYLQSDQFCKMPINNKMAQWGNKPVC
UniProt P78347: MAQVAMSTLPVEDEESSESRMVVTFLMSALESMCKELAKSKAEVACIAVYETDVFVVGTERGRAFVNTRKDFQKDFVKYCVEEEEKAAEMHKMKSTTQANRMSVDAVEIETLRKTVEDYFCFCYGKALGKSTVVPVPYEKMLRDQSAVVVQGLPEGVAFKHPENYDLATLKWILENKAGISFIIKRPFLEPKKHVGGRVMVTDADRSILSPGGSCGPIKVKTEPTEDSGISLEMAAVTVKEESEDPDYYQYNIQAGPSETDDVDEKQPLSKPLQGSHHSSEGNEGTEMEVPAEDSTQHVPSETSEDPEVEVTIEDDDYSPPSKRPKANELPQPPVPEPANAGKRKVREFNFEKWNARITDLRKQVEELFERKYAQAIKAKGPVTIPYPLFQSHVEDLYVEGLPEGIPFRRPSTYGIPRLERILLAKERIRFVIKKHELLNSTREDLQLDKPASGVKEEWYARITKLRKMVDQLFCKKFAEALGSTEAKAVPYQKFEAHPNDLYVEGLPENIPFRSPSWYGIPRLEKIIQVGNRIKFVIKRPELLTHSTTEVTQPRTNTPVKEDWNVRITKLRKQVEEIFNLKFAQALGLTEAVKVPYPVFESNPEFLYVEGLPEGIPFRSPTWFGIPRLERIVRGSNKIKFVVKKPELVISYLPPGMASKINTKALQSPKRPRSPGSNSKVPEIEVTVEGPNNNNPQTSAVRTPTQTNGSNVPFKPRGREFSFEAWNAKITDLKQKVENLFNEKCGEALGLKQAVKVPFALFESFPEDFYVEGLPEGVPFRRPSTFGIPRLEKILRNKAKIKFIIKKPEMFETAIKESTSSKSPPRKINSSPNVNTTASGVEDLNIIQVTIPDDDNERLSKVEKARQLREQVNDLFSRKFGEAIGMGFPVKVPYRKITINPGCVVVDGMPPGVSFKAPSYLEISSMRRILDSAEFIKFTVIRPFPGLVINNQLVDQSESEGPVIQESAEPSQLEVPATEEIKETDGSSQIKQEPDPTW
UniProt Q8WW33: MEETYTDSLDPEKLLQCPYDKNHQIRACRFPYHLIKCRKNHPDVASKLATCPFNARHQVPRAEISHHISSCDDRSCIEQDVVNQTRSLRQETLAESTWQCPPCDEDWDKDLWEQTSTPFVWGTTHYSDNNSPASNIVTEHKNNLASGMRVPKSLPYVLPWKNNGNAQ
UniProt P52657, whole entry, looked up: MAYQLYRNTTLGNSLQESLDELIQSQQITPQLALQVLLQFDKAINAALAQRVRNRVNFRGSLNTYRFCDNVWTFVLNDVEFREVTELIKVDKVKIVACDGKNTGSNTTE
UniProt P36969, whole entry, looked up: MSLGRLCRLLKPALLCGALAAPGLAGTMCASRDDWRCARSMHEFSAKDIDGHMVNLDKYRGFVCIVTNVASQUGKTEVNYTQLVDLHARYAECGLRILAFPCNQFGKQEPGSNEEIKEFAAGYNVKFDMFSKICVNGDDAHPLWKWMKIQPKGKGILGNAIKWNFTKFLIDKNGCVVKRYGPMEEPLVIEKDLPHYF
UniProt P29084: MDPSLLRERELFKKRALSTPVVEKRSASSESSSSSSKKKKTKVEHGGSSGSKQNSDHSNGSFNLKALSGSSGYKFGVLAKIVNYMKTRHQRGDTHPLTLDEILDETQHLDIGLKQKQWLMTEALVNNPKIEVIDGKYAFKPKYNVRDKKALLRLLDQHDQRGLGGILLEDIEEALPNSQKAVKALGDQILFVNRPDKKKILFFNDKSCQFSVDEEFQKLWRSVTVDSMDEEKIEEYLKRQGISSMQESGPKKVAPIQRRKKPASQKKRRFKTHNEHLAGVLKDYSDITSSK
UniProt Q12849: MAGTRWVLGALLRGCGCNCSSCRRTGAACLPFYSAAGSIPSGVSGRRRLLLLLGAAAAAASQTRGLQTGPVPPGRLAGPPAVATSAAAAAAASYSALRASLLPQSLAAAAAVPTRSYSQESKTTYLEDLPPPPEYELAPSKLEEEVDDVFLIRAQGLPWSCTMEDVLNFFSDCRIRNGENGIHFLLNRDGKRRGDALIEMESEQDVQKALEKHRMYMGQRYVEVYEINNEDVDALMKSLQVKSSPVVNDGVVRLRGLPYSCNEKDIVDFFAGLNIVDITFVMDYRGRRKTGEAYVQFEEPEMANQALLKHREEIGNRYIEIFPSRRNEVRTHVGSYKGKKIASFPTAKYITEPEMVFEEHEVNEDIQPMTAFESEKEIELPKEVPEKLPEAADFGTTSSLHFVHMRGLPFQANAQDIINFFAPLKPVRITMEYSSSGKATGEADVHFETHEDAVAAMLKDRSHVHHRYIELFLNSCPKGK

Row | Target | probe-labelled cysteine peptide fold change (10 µM) | probe-labelled cysteine peptide fold change (50 µM)
1 | GSTCD_Q8NEC7_466_IVDFCSGGGHVGIVLAHMLPSCQVTLIENK (UniProt Q8NEC7) | -0.0803 | 0.0627
2 | GTSE1_Q9NYZ3_436_DSCLNSK (UniProt Q9NYZ3) | -0.103 | -0.0749
3 | GTF2B_Q00403_34+37_AGDMICPECGLVVGDR (UniProt Q00403) | 0.187 | 0.0217
4 | GTPBP4_Q9BZE4_174_TLLLCGYPNVGK (UniProt Q9BZE4) | -0.0342 | 0.06
5 | GPX1_P07203_202_RFQTIDIEPDIEALLSQGPSCA (UniProt P07203) | -0.0744 | -0.0327
6 | GTF2H1_P32780_478_HFWSCFPVNTPFLEEK (UniProt P32780) | 0.229 | 0.375
7 | GSPT1_P15170_387_GIEEEEILPGFILCDPNNLCHSGR (UniProt P15170) | 0.0401 | 0.0456
8 | GTF3C2_Q8WUA4_291_QKPHCR (UniProt Q8WUA4) | -0.189 | -0.376
9 | GSTCD_Q8NEC7_592_QCMCLVDLDR (UniProt Q8NEC7) | -0.0719 | -0.109
10 | GRPEL2_Q8TAA5_87_AIADCENIR (UniProt Q8TAA5) | 0.225 | 0.00166
11 | HADH_Q16836_211_HPVSCK (UniProt Q16836) | 0.0299 | -0.0168
12 | GTF3C1_Q12789_1091_CAMLEYTTGSR (UniProt Q12789) | 0.162 | 0.0373
13 | GSTCD_Q8NEC7_335_CGIQFLHLPK (UniProt Q8NEC7) | -0.116 | -0.00154
14 | GPX1_P07203_115_CEVNGAGAHPLFAFLR (UniProt P07203) | -0.0227 | -0.0248
15 | GRN_P28799_543_QGWACCPYR (UniProt P28799) | -0.051 | -0.116
16 | H6PD_O95479_86_ALESLSCPK (UniProt O95479) | -0.13 | -0.00529
17 | GPS1_Q13098_175_GHDDLGDHYLDCGDLSNALK (UniProt Q13098) | -0.0088 | -0.125
18 | GSTM3_P21266_119_LCYSSDHEK (UniProt P21266) | 0.138 | -0.147

Row | Target | probe-labelled cysteine peptide fold change (10 µM) | probe-labelled cysteine peptide fold change (50 µM)
19 | GTF2I_P78347_475_KMVDQLFCK (UniProt P78347) | -0.349 | -0.218
20 | GTF2B_Q00403_34_AGDMICPECGLVVGDR (UniProt Q00403) | -0.0762 | 0.0694
21 | HADHB_P55084_435_FNNWGGSLSLGHPFGATGCR (UniProt P55084) | -0.0426 | 0.00267
22 | GTF3C1_Q12789_42_VPPFPLPLEPCTQEFLWR (UniProt Q12789) | 0.234 | 0.326
23 | GSTM3_P21266_39_RYTCGEAPDYDR (UniProt P21266) | 0.0166 | 0.0201
24 | GTSF1_Q8WW33_76_SCIEQDVVNQTR (UniProt Q8WW33) | -0.0275 | -0.0476
25 | GPT2_Q8TD30_281_CIEDVIHFAWEEK (UniProt Q8TD30) | 0.213 | 0.0432
26 | GSK3A_P49840_398_LSPLEACAHSFFDELR (UniProt P49840) | -0.086 | -0.0328
27 | HARS2_P49590_274_IGDYVQCHGGVSLVEQMFQDPR (UniProt P49590) | -0.114 | -0.207
28 | GSTM3_P21266_208_IAAYLQSDQFCK (UniProt P21266) | 0.415 | 0.274
29 | GTF2A2_P52657_68_FCDNVWTFVLNDVEFR (UniProt P52657) | -0.0763 | -0.207
30 | GPX4_P36969_134_ICVNGDDAHPLWK (UniProt P36969) | 0.156 | 0.234
31 | H2AFY2_Q9P0M6_286_CEEQLEETIK (UniProt Q9P0M6) | 0.236 | 0.13
32 | GRN_P28799_171_VHCCPHGAFCDLVHTR (UniProt P28799) | -0.00859 | 0.306
33 | GTF2E2_P29084_208_SCQFSVDEEFQK (UniProt P29084) | 0.0413 | -0.1
34 | GRSF1_Q12849_476_YIELFLNSCPK (UniProt Q12849) | 0.0157 | -0.163
35 | GTSF1_Q8WW33_71_AEISHHISSCDDR (UniProt Q8WW33) | 0.104 | -0.55

2 records drawn at random from the list so far:
Row | Target | probe-labelled cysteine peptide fold change (10 µM) | probe-labelled cysteine peptide fold change (50 µM)
18 | GSTM3_P21266_119_LCYSSDHEK (UniProt P21266) | 0.138 | -0.147
30 | GPX4_P36969_134_ICVNGDDAHPLWK (UniProt P36969) | 0.156 | 0.234

From the supplement of paper PMC12067093, “Discovery and optimisation of a covalent ligand for TRIM25 and its application to targeted protein ubiquitination” (Chemical Science, 2025)
